These results are taken from paper PMC11442456.

Results are given in words; binding and its absence hold for the method and conditions named. Some entries that bind do so weakly or less than the wild type.

Assay [1] deals with T1, human lysozyme (commercial, Sigma Aldrich L1667) (human), P61626.
T1 chain: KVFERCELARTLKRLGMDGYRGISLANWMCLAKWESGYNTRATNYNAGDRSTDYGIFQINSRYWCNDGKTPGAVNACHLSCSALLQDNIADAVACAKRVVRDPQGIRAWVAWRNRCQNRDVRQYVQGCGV
Nature of the assay: cryo-EM structure; helical reconstruction (RELION 4.0) of rigid irreversible fibrils; fibrils from 20 mg/ml lysozyme, 100 mM DTT, 10 mM NaCl, pH 7, 3 h at 85 °C (human) or 90 °C (HEWL), stirring at 300 rpm; both purified. To be noted: remark: other sources report otherwise.

For assay [2], the target named is T2, recombinant human lysozyme, isotopically labeled (expressed in Pichia pastoris) (human), P61626.
T2 chain: T1 chain
Nature of the assay: solid-state NMR (2D PAIN, ^15N-^13C correlation); reversible fibrils co-fibrillized from a 1:1 mixture of ^15N and ^13C single-labeled human lysozyme (20 mg/ml, pH 7, 10 mM NaCl, 20 mM DTT, 5 min at 80 °C); 850 MHz, MAS 17 kHz, sample at 8 °C; both purified. To be noted: remark: other sources report otherwise.

B1: human lysozyme (commercial, Sigma Aldrich L1667), P61626 19-148 (enzyme)
chain: T1 chain
Consider B1, for which the binding result in assay [1] was “binds”.

B2: recombinant human lysozyme, isotopically labeled (expressed in Pichia pastoris), P61626 19-148 (enzyme)
chain: T1 chain
Take B2: the binding entry in assay [2] was “binds”.
